Assay results published in the supplement of paper PMC10735217.
Counter-ions that a name gives are not always drawn. This is one part of the list. This data set is noisy: repeats of one test often differ as much as different tests do.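 Human kidney-derived cells stably carry a construct in which eight TEAD-binding elements drive luciferase, measured by luminescence in a drug-repurposing library screen. A hit is any compound whose signal exceeds the plate mean by more than five robust Z scores.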

System: HEK293A TEAD-LUC reporter
Assay: TEAD-luciferase reporter activity (YAP activation), robust Z score vs plate; higher = stronger YAP/TEAD activation
Conditions: 24 h

SMILES	TEAD-luciferase reporter activity (compound concentration: 200 nM)	TEAD-luciferase reporter activity (compound concentration: 2 uM)	TEAD-luciferase reporter activity (compound concentration: 10 uM)
N[C@H]1CC[C@H](N[C@@H]2C[C@H]2c2ccccc2)CC1	inactive: -0.447	inactive: 0.333	inactive: 3.23
CCCCc1nc(N)c2nc(-n3nccn3)n(C)c2n1	inactive: 0.0654	inactive: -1.5	inactive: -0.726
O=C1CSC2(CCN(CCCN3c4ccccc4Sc4ccc(Cl)cc43)CC2)N1	inactive: 1.11	inactive: -0.794	inactive: 0.259
Cc1cc(C)c2c3ccccc3n(Cc3cccc(C(C(=O)NC(CO)c4ccccc4)C4CCCC4)c3)c2n1 (configuration not stated)	inactive: -0.9	inactive: -0.1	active: 5.91
CCCCC/C=C\C/C=C\C/C=C\C/C=C\CCCC(=O)O [Arachidonic acid]	inactive: 0.306	inactive: 1.28	inactive: -0.704
O=c1n(CCCN2CCN(c3cccc(Cl)c3)CC2)nc2ccccn12 [trazodone]	–	inactive: 3.74	–
O=c1n(CCCN2CCN(c3cccc(Cl)c3)CC2)nc2ccccn12	inactive: -0.716	–	inactive: 0.0583
NC1=NCC2c3ccccc3Cc3ccccc3N12 (configuration not stated) [epinastine, BI, nasal]	inactive: 1.3	–	inactive: 0.329
NC1=NCC2c3ccccc3Cc3ccccc3N12 (configuration not stated) [epinastine, BI]	–	inactive: 1.54	–
O=C(O)Cc1sc2nc3ccccc3n2c1-c1ccc(Cl)cc1 [Tilomisole]	inactive: -0.0168	inactive: -1.53	inactive: 0.0252
CC(=O)N1CCN(C(=O)c2c[nH]c3ncccc23)CC1	inactive: 1.77	–	inactive: 2.46
CN(C)[C@@H](C(=O)N1CCC[C@H]1c1ncc(-c2ccc(-c3ccc(-c4cnc([C@@H]5CCCN5C(=O)[C@@H](c5ccccc5)N(C)C)[nH]4)cn3)cc2)[nH]1)c1ccccc1	inactive: -0.396	inactive: -0.138	inactive: 0.142
O=C(O)C1CSCN1 (configuration not stated) [Timonacic]	inactive: 0.653	inactive: -0.552	inactive: -1.26
NC(=O)N1c2ccccc2C2OC2c2ccccc21 (configuration not stated)	inactive: -1.74	inactive: -0.972	inactive: -0.404
C=CC(C)NC(=S)NNC(=S)NC(C)C=C (configuration not stated)	inactive: -0.949	inactive: 1.14	inactive: -3.49
CNC(=O)c1ccc(Oc2ccc3c(c2)CCN(C2CCC2)CC3)nc1	inactive: 0.692	inactive: 0.903	inactive: -0.0573
CC(C)NCC(O)c1ccc(O)c(NS(C)(=O)=O)c1 (configuration not stated)	inactive: -0.885	inactive: -1.83	inactive: 1.41
c1ccc2c(c1)OCC(=C1NCCN1)O2 [idazoxan]	inactive: -1.05	inactive: 4.89	inactive: -2.11
CCOP(=O)(CCCCCCOc1ccc(OC)cc1F)OCC	inactive: -0.687	inactive: -0.204	inactive: 0.391

Rewritten field by field: entries from further up
CC(=O)N1CCN(C(=O)c2c[nH]c3ncccc23)CC1
  TEAD-luciferase reporter activity (compound concentration: 200 nM): inactive: 1.77; TEAD-luciferase reporter activity (compound concentration: 10 uM): inactive: 2.46
CN(C)[C@@H](C(=O)N1CCC[C@H]1c1ncc(-c2ccc(-c3ccc(-c4cnc([C@@H]5CCCN5C(=O)[C@@H](c5ccccc5)N(C)C)[nH]4)cn3)cc2)[nH]1)c1ccccc1
  TEAD-luciferase reporter activity (compound concentration: 200 nM): inactive: -0.396; TEAD-luciferase reporter activity (compound concentration: 2 uM): inactive: -0.138; TEAD-luciferase reporter activity (compound concentration: 10 uM): inactive: 0.142
O=C(O)C1CSCN1 (configuration not stated) [Timonacic]
  TEAD-luciferase reporter activity (compound concentration: 200 nM): inactive: 0.653; TEAD-luciferase reporter activity (compound concentration: 2 uM): inactive: -0.552; TEAD-luciferase reporter activity (compound concentration: 10 uM): inactive: -1.26

(cont.)

SMILES	TEAD-luciferase reporter activity (compound concentration: 200 nM)	TEAD-luciferase reporter activity (compound concentration: 2 uM)	TEAD-luciferase reporter activity (compound concentration: 10 uM)
C[C@H](O)[C@@H](c1ccc2c(c1)OCO2)N1CCOCC1 [Filenadol]	inactive: -1.52	inactive: -1.9	inactive: -1.84
CCCc1ccc(NS(=O)(=O)Cc2ccccc2)c(=O)n1CC(=O)Nc1ccc(N)nc1C	inactive: -1.23	inactive: -1.37	inactive: 0.0175
CC(O)(c1ccc(Cl)cc1)C(C)(O)c1ccc(Cl)cc1 (configuration not stated)	inactive: -0.957	inactive: -0.31	inactive: 2.52
CC(=O)N1CCC(NC(=O)NC23CC4CC(CC(C4)C2)C3)CC1	inactive: 0.473	inactive: 0.432	inactive: 1.02
CC1CC2(NC(=O)NC2=O)c2cc(F)ccc2O1 (configuration not stated) [Methosorbinil]	inactive: 0.136	inactive: -0.372	inactive: -0.958
CCCC(=O)OCOC(=O)C1=C(C)NC(C)=C(C(=O)OC)C1c1cccc(Cl)c1Cl (configuration not stated) [Clevidipine]	inactive: -0.492	inactive: 2.25	inactive: 3.16
COC(=O)C(C)NC(=O)Cc1c(C)n(C(=O)c2ccc(Cl)cc2)c2ccc(OC)cc12 (configuration not stated)	inactive: 1.08	inactive: 0.211	inactive: 2.45
O=C(Cc1ccc(F)cc1)Nc1ccc2cnn(CCN3CCCC3)c2c1	inactive: -0.85	inactive: -1.44	inactive: -1.74
CCCCCCCCOc1c(O)c2ccc(NC(=O)/C=C/c3cc(OC)c(O)c(OC)c3)cc2n(C)c1=O	inactive: -0.462	inactive: 0.835	inactive: -0.682
O=C(Cc1ccccc1Nc1c(Cl)cccc1Cl)OCCCCO[N+](=O)[O-]	inactive: -2.16	inactive: 0.247	inactive: 2.02
O=C1c2ccccc2C(=O)c2c(NCCNCCO)ccc(NCCNCCO)c21	inactive: -0.898	–	inactive: 0.857
O=C1c2ccccc2C(=O)c2c(NCCNCCO)ccc(NCCNCCO)c21 [Ametantrone]	–	inactive: 3.25	–
COc1ccc(Cc2cnc(N)nc2N)cc1OC	inactive: -0.906	–	inactive: -1.88
COc1ccc(Cc2cnc(N)nc2N)cc1OC [Diaveridine]	–	inactive: -0.378	–
CO[C@@H]1COCC[C@@H]1N[C@@H]1CC[C@@](C(=O)N2CCc3ncc(C(F)(F)F)cc3C2)(C(C)C)C1	inactive: -0.772	inactive: -0.83	inactive: 0.174
COc1ccc(-c2nc(C(=O)N3CCN(C)CC3)sc2-c2ccc(OC)cc2)cc1	inactive: -1.01	inactive: 0.0454	inactive: -0.152
CCCCC1(CCCC)CN(c2ccccc2)c2cc(SC)c(OCC(=O)N[C@@H](C(=O)N[C@@H](CC)C(=O)O)c3ccc(O)cc3)cc2S(=O)(=O)N1	inactive: -0.609	inactive: -0.155	inactive: 0.0233
CC(=O)OCC(=O)[C@@]12OC(C)(C)O[C@@H]1C[C@H]1[C@@H]3C[C@H](F)C4=CC(=O)C=C[C@]4(C)[C@@]3(F)[C@@H](O)C[C@@]12C [fluocinonide]	inactive: -0.346	inactive: -0.68	inactive: 0.461
CN1Cc2c(N)cccc2C(c2ccccc2)C1 (configuration not stated) [Nomifensine maleate]	inactive: -2.98	inactive: -2.46	inactive: -0.937

SMILES	TEAD-luciferase reporter activity (compound concentration: 200 nM)	TEAD-luciferase reporter activity (compound concentration: 2 uM)	TEAD-luciferase reporter activity (compound concentration: 10 uM)
CC(C(=O)O)c1ccc2oc(-c3ccc(Cl)cc3)nc2c1 (configuration not stated) [Benoxaprofen]	inactive: 0.832	inactive: -2.79	inactive: -4.13
O=C1CC[C@]2(c3ccc(Cl)c(Cl)c3)O[C@H](COc3ccc(Cl)cc3)CN12	inactive: -0.109	inactive: -1.26	inactive: -0.136
Cc1ccc2c(Br)cc(Br)c(OC(=O)c3cccc4ccccc34)c2n1	inactive: -0.511	inactive: -0.436	inactive: 0.653
CSc1nc(Nc2ccccc2)c2cccnc2n1	inactive: 0.765	inactive: 0.335	inactive: -1.33
Cc1cc(C)cc([C@@H]2CCCN2Cc2ccc(Oc3ccc(C(N)=O)cc3F)cc2)c1	inactive: -0.799	inactive: -0.952	inactive: -1.21
CCN1CCC(=C2c3ccccc3CCc3ccccc32)C1C (configuration not stated)	inactive: -0.541	inactive: -0.853	inactive: -0.84
CCOC(=O)CCC(=O)OC1C(OC2C(C)C(OC3CC(C)(OC)C(O)C(C)O3)C(C)C(=O)OC(CC)C(C)(O)C(O)C(C)C(=O)C(C)CC2(C)O)OC(C)CC1N(C)C (configuration not stated) [Eryped1264-62-6]	inactive: -0.0884	–	inactive: 3.46
CCOC(=O)CCC(=O)OC1C(OC2C(C)C(OC3CC(C)(OC)C(O)C(C)O3)C(C)C(=O)OC(CC)C(C)(O)C(O)C(C)C(=O)C(C)CC2(C)O)OC(C)CC1N(C)C (configuration not stated) [Erythromycin ethylsuccinate]	–	inactive: 0.343	–
O=C1c2cccc3cc([N+](=O)[O-])cc(c23)C(=O)N1CCN1CCCC1 [Pinafide]	inactive: -0.742	inactive: 0.792	inactive: -1.12
CC(=O)NC[C@H]1CN(c2ccc(N3Cc4ccncc4C3)c(F)c2)C(=O)O1	inactive: -0.571	inactive: -1.21	inactive: 2.01
CCN(O)CCc1ccc2c(c1)C(=O)c1ccccc1CO2	inactive: 2.07	inactive: 1.27	inactive: 3.56
COc1c2ccoc2cc2oc(=O)ccc12 [5-Methoxypsoralen]	inactive: -0.253	inactive: 0.357	inactive: -0.161
CCCCCCCCCCCCCCCCCCOP(=O)(O)OC1CC[N+](C)(C)CC1 [perifosine]	–	–	inactive: 1.1
CCNCc1coc2ccc(S(=O)(=O)N(CC(C)C)C[C@@H](O)[C@H](Cc3ccccc3)NC(=O)OC3CO[C@H]4OCC[C@@H]34)cc12 (some centres not stated)	inactive: -0.159	inactive: -0.257	inactive: -1.05
Cn1c(=O)c2c(ncn2CCNCC(O)c2ccc(O)c(O)c2)n(C)c1=O (configuration not stated)	inactive: 0.292	inactive: -0.476	inactive: -0.27
CCCCCCCCC(CO)CCCCCC (configuration not stated)	inactive: -0.0533	inactive: -1.3	inactive: -0.539
CCOC(=O)C(C)CC(C)C(=O)N1c2ccccc2C[C@H]1C(=O)O (some centres not stated)	inactive: -0.888	inactive: 0.774	inactive: 4.19
CCOC(=O)Oc1ccc(/C=C/C=C/C(=O)NCCN2CCC(OC(c3ccccc3)c3ccccc3)CC2)cc1OC	inactive: -0.584	inactive: -0.361	inactive: -0.128
O=C1NC2(CCN(Cc3ccc(C(F)(F)F)cc3)CC2)Oc2ccccc21	inactive: -0.634	–	inactive: 3.7
